These are yes or no findings as the source states them, for the method shown. Binding seen in cells or lysates may run through a third protein. Some entries that bind do so weakly or less than the wild type. Where a sequence is shown, tags or fusion partners need not be part of it.
What was measured:
Bcl-XL [1] = target: Bcl-XL (UniProt Q07817); assay: co-immunoprecipitation with anti-Flag antibody, Western blot, HEK 293 cells treated with TNF-α
Bcl-XL [2] = target: Bcl-XL (UniProt Q07817); assay: co-immunoprecipitation with anti-Flag antibody, Western blot
Bcl-XL [3] = target: Bcl-XL (UniProt Q07817); assay: co-immunoprecipitation of Romo1-Flag with anti-Flag antibodies, Western blot, HEK 293 cells treated with TNF-α

Sequences of proteins named here, by UniProt entry; tags and fusion partners are left off.
UniProt Q07817: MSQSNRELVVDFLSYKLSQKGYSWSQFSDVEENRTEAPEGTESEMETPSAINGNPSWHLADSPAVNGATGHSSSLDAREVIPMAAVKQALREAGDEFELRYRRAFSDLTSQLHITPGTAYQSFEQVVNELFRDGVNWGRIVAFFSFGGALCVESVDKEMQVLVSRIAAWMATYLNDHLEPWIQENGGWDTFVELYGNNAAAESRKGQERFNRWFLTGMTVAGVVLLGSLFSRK

binding (Bcl-XL [1]): binds
binding (Bcl-XL [2]): binds
binding (Bcl-XL [3]): binds
B1: Flag-tagged Romo1 (protein, not shown: small tags and cut ends)
chain: MPVAVGPYGQSQPSCFDRVKMGFVMGCAVGMAAGALFGTFSCLRIGMRGRELMGGIGKTMMQSGGTFGTFMAIGMGIRC
